Test results reported in PubChem BioAssay AID623995 (National Center for Advancing Translational Sciences (NCATS), 2012).
Inconclusive results, whose numbers are uncertain, are shown with a selection of clear calls. Where the call is inconclusive, the potency comes from a doubtful curve fit. Active and inactive are the calls of the source. Calls come from the whole dose curve; as a rule, active = well fitted inhibition curve with a large enough effect; inconclusive = small, poorly fitted or top-dose-only effect; inactive = no such curve, though single readings can be large or run the other way.

The chains behind the UniProt entries cited, without tags or fusion partners.
UniProt O75874, whole entry, looked up: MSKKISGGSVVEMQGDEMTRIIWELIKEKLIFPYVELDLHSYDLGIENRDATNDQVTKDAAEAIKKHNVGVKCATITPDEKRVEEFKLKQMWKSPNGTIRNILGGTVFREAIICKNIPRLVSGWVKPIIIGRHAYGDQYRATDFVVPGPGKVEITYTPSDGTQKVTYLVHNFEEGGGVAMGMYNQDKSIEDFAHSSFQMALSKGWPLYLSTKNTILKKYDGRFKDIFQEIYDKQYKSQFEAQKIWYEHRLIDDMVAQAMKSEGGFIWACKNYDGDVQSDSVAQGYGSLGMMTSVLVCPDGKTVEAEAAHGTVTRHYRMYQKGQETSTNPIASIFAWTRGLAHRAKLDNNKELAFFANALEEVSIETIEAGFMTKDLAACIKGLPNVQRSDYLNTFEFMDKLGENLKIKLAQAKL

target: Isocitrate dehydrogenase [NADP] cytoplasmic (Homo sapiens) (UniProt O75874); test: qHTS for Inhibitors of mutant isocitrate dehydrogenase 1 (IDH1): Cherrypicks in WT IDH1; conditions: WT IDH1 enzyme, NADPH diaphorase/resazurin fluorescence; series mostly up to 115 µM; activity change, negative = inhibition: at the top concentration; note: nearly all actives have a fitted effect of over 55% in size;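 for activity change, negative = inhibition: 0% = full WT IDH1 enzyme control and full inhibition = no enzyme wells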
Procedure, shortened: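 WT IDH1 at 0.65 nM in 20 mM Tris pH 7.5 with MgCl2, NaCl, BSA, b-ME; 0.06 mM NADP+ and 0.08 mM isocitrate. NADPH coupled to diaphorase/resazurin; resorufin fluorescence read kinetically for 10 min. Compounds titrated 115 uM to 0.20 uM.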
Potency is the fitted concentration of half-maximal effect.

Potency, active:
COc1ccc(-c2oc(NC(=O)CCl)c(C#N)c2-c2ccc(OC)cc2)cc1 79.4 µM
CCn1c2ccccc2c2c3ncc4cccn4c3ccc21 44.7 µM
Cc1ccc(-c2n[nH]c3c2C(c2ccccc2Cl)N(c2ccc(C(=O)O)cc2)C3=O)cc1 (stereo unspecified) 35.5 µM
CN(c1ccccc1)c1ccc(/C=C/[N+](=O)[O-])cc1 70.8 µM
CC1CCc2c(sc3nc(C(C)(C)C)nc(N4CCN(C(=O)CCl)CC4)c23)C1 (stereo unspecified) 44.7 µM
O=C(/C=C/c1cccs1)Nc1scc(-c2ccccc2)c1C(=O)O 35.5 µM

Potency, inconclusive:
CC1(C)Cc2c(c(N3CCOCC3)nc3sc4c(NN)ncnc4c23)CS1 35.5 µM [inhibitor, partial curve]
COc1cc([C@@H]2c3cc4c(cc3[C@@H](O)[C@H]3COC(=O)[C@H]23)OCO4)cc(OC)c1O[Si](C)(C)C(C)(C)C 35.5 µM [inhibitor, single point]
CC[C@@H](CCC=C(C)C)C(=O)N(Cc1ccccc1)c1ccccc1 44.7 µM [inhibitor, partial curve]
C[C@H](CO)N1C[C@H](C)[C@@H](CN(C)Cc2ccc(C(=O)Nc3ccccc3N)cc2)Oc2c(NC(=O)C3CCCCC3)cccc2C1=O 44.7 µM [inhibitor, partial curve]
Cc1ccc(C(NC(=O)C(C)C)c2cc([N+](=O)[O-])c3cccnc3c2O)cc1 (stereo unspecified) 39.8 µM [inhibitor, partial curve]
CCc1ccc2c(c1)C(NC(C)=O)C(=O)N2CCN1CCOCC1 (stereo unspecified) 44.7 µM [inhibitor, partial curve]
CCOC(=O)CSC1=NC(=O)/C(=C/c2ccc(OC)cc2)S1 70.8 µM [inhibitor, partial curve]
O=c1c2ccccc2nc2n1CCC2 70.8 µM [inhibitor, partial curve]
C=CCSC1=N/C(=C\c2cc(OCC)c(OC(C)=O)c([N+](=O)[O-])c2)C(=O)S1 89.1 µM [inhibitor, single point]
O=C1/C(=C/c2ccncc2)Oc2cc(OS(=O)(=O)c3ccccc3)ccc21 44.7 µM [inhibitor, full curve]
COc1cc(C2(c3ccc(O)c(OC)c3)C(=O)Nc3c(Br)cc(Br)cc32)ccc1O 89.1 µM [inhibitor, partial curve, poor fit]
Cc1ccc(OCCCSc2nc(-c3ccc(C(C)(C)C)cc3)nc3cc(=O)[nH]n23)cc1C 39.8 µM [inhibitor, partial curve, poor fit]
Cc1c(/C=N/NC(=O)c2cc(=O)[nH]c(=O)[nH]2)c2ccccn2c1C(=O)c1ccccc1 11.2 µM [inhibitor, partial curve]
C=CS(=O)(=O)c1ccc(Oc2ccc(S(=O)(=O)C=C)cc2)cc1 44.7 µM [inhibitor, full curve]
Cc1cc(C(C)(C)C)oc1C(=O)NCCCNC(=O)c1oc(C(C)(C)C)cc1C 39.8 µM [inhibitor, partial curve, poor fit]
COc1cc(Cl)c(C)cc1NC(=O)c1ccc2c(SCC(=O)O)c3c(nc2c1)CCCC3 89.1 µM [inhibitor, single point]
COc1ccc(NS(=O)(=O)c2ccc(NC(=S)NC(=O)/C=C/c3ccccc3)cc2)nn1 39.8 µM [inhibitor, full curve]
Cc1ccsc1C1Nc2ccc3ncccc3c2C2=C1C(=O)CC(C)(C)C2 (stereo unspecified) 22.4 µM [inhibitor, full curve]

Activity change, negative = inhibition, inactive:
Cc1ccc(N(C(=O)Cc2c[nH]c3ccccc23)C(C(=O)NC2CCCCC2)c2ccco2)cc1 (stereo unspecified) -2.8%
O=C(NC1CCCCC1)C(c1ccncc1)N(C(=O)c1ccco1)c1ccc(F)cc1 (stereo unspecified) -1%
N#CC1=C(N)C(C#N)(C#N)C(c2cccnc2)C2COCC=C12 (stereo unspecified) 46.9%
O=C(CN1C(=O)COc2ccc(S(=O)(=O)N3CCCCCC3)cc21)Nc1cccc(Cl)c1 5.38%
Cc1ccccc1N(C(=O)c1snc(C(N)=O)c1N)C(C(=O)NC1CCCC1)c1ccco1 (stereo unspecified) 12.6%
CC(C)=CCC/C(C)=C/CNC(=O)C[C@H]1C[C@H](C(=O)N2CCCCC2)[C@@]2(C)c3[nH]c4cc(CCC(=O)N(C)C)ccc4c3CCN2C1=O -7.97%
CC/C(=C\C1CCCCC1)C(NP(=O)(c1ccccc1)c1ccccc1)c1ccccc1 (stereo unspecified) 1.35%
O=C(NC1CCCCC1)C(c1ccc(F)cc1)N(C(=O)c1cccs1)c1ccc2c(c1)OCO2 (stereo unspecified) -8.91%
Cc1cccc(N2C(=O)CCSC23C(=O)N(Cc2ccc(F)cc2)c2ccccc23)c1 (stereo unspecified) -17.4%
COc1ccc(-c2nn3c(-c4ccccc4C)nnc3c3ccccc23)cc1 2.06%
Cc1cc(NC(=O)CCC(=O)N(c2ccccc2)C(C(=O)NC2CCCC2)c2ccc(F)cc2)no1 (stereo unspecified) -3.72%
CCc1ccc(NC(=O)CN2C(=O)C3CCCN3c3ccc(S(=O)(=O)N(CC)CC)cc32)cc1 (stereo unspecified) -3.56%

Pulled by compound from the entries so far, 3 records:
Activity change, negative = inhibition, inactive:
CC/C(=C\C1CCCCC1)C(NP(=O)(c1ccccc1)c1ccccc1)c1ccccc1 (stereo unspecified) 1.35%
O=C(NC1CCCCC1)C(c1ccc(F)cc1)N(C(=O)c1cccs1)c1ccc2c(c1)OCO2 (stereo unspecified) -8.91%
CCc1ccc(NC(=O)CN2C(=O)C3CCCN3c3ccc(S(=O)(=O)N(CC)CC)cc32)cc1 (stereo unspecified) -3.56%
